The assay has as its target integrin beta 1 (of HT29 colonic epithelial cells) (UniProt P05556). Kind of assay: immunoprecipitation with anti-biotin antibody from HT29 cells treated with biotin-labeled peptide (200 and 400 µg/ml), western blot with anti-integrin antibodies.

Sequences of proteins named here, by UniProt entry; tags and fusion partners are left off.
UniProt P05556: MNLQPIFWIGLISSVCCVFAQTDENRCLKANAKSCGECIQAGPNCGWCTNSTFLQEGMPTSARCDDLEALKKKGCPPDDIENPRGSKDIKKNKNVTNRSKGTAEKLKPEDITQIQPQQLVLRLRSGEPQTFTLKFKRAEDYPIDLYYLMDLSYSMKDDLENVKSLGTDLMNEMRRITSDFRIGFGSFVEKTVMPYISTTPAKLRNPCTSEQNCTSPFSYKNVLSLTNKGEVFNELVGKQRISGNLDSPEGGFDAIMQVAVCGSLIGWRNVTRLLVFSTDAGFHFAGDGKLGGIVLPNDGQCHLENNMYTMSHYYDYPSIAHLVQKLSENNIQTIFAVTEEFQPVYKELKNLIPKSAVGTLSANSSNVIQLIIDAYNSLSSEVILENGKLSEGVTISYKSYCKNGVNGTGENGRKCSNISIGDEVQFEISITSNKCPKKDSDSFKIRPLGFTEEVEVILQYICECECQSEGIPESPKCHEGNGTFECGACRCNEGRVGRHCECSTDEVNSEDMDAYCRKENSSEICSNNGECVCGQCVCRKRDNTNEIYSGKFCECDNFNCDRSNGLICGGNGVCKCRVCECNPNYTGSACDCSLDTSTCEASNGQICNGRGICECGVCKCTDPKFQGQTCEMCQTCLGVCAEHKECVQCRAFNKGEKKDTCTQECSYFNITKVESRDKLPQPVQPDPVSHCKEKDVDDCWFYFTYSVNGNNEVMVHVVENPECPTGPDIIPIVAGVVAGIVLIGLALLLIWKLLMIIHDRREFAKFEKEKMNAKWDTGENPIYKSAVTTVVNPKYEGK

Results are given in words; binding and its absence hold for the method and conditions named. Some entries that bind do so weakly or less than the wild type.

For the molecule YGLRSKSKKFRRPDIQYPDAT (labeled with biotin (position not given)) [peptide of SEQ ID NO: 1 labeled with biotin], the binding entry is given as “binds”.

The values are drawn from patent US20220242904A1.
